Experimental findings from article doi:10.1101/2025.10.31.25337980 are described below.

Protein sequences, listed by entry. Tags and fused reporters are not part of them.
UniProt P55258: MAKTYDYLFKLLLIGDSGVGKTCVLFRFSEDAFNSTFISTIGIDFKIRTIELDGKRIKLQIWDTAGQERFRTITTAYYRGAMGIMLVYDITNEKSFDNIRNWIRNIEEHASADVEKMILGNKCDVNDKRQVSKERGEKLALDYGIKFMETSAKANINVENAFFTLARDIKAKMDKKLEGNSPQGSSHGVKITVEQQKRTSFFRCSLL

These are yes or no findings as the source states them, for the method shown. Binding seen in cells or lysates may run through a third protein. Some entries that bind do so weakly or less than the wild type.

This assay addresses T1, TBC1D8 (mouse (endogenous in mouse spleen)) (UniProt Q9Z1A9).
T1 sequence: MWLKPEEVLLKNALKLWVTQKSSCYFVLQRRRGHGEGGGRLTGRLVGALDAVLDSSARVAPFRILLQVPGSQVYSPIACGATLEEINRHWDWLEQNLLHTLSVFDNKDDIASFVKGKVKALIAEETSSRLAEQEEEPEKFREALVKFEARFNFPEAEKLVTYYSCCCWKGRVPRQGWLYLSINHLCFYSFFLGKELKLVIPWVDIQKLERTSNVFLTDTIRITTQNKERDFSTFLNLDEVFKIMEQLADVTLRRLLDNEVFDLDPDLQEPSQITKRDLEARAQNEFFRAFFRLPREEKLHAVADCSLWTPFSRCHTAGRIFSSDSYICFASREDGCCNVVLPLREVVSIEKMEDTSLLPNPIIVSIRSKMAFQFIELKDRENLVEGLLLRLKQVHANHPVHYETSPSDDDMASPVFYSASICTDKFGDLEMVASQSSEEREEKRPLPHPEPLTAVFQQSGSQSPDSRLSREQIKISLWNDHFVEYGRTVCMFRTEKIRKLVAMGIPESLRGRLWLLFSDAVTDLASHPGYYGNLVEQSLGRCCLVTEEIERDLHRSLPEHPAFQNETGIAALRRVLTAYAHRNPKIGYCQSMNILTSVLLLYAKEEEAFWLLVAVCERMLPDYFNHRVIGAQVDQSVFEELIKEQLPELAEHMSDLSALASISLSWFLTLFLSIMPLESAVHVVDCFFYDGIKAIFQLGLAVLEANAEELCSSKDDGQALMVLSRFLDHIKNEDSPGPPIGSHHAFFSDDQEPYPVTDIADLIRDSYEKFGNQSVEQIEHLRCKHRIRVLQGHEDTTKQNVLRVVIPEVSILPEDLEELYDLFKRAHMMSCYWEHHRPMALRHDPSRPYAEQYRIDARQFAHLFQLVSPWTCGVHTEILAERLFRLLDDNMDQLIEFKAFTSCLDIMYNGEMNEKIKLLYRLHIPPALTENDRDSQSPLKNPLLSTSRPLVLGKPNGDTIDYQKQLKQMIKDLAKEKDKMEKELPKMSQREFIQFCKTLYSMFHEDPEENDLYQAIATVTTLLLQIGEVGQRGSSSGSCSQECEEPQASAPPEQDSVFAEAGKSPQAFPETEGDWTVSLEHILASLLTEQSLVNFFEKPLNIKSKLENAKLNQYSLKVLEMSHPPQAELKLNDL
Briefly: co-IP.

RAB8A (from UniProt P55258 1-207): the binding result was “binds”.
